This assay concerns CD2F1 mice, intracerebral L1210 leukemia, survival T/C. Briefly: NCI In Vivo Anticancer Drug Screen. Data for tumor model L1210 Leukemia (intracerebral) in CD2F1 (CDF1) mice. The settings on record: higher T/C = longer survival. As to the method:
The antitumor activity of compounds was measured in mice bearing transplantable tumors. Survival or tumor size were measured and the results are expressed as the measurement made in the treated group (T) divided by the measurement made in the vehicle treated control group (C). The tumor model used in this assay is L1210 Leukemia (intracerebral) in CD2F1 (CDF1) mice

Where [1] appears, read: T/C endpoint: mean survival time, dose: 8.0 mg/kg/injection, schedule: Q01DX009 (ip), vehicle: saline.
Setting [2] is: T/C endpoint: median survival time, dose: 512.0 mg/kg/injection, schedule: Q01DX005 (ip), vehicle: saline with Tween-80.
The mark [3] stands for this setting: T/C endpoint: median survival time, dose: 400.0 mg/kg/injection, schedule: Q01DX005 (ip), vehicle: Klucel (hydroxypropylcellulose) (HPC).
Setting [4] is: T/C endpoint: median survival time, dose: 128.0 mg/kg/injection, schedule: Q01DX005 (ip), vehicle: saline with Tween-80.
[5] abbreviates: T/C endpoint: median survival time, dose: 256.0 mg/kg/injection, schedule: Q01DX005 (ip), vehicle: saline with Tween-80.

SMILES strings stand for the structures. The list is a part of this screen's results and no random one: it gathers tests that were run many times, whatever their T/C, doses with no T/C, and many T/C values between a quarter and a half above the control. Further doses and runs are listed elsewhere. T/C gives the treated animals as a percentage of the vehicle group. Some doses have a count of surviving animals in place of a T/C: the source holds a T/C of zero for them, seemingly a mark for toxic or unscored doses. Some survivor counts are full or nearly so, which does not show that the dose was tolerated: survival well below the control is almost never listed, so the zero probably covers shortened survival too. Counts of survivors are from the toxicity check (mostly the fifth day) where no day follows; animals may have died later. Schedule codes are those of the source, taken here to give the interval after Q, in days (D) or hours (H), and the number of doses after X. Some entries hold several experiments; their values stand side by side, smallest first. For survival time, the PubChem record calls one and a half times the control and up active, and a quarter to a half above the control has no call in these data; cut-offs in other NCI protocols can differ. Some T/C values are followed by the survivors on the day toxicity was checked, most often the fifth; where none is given, no animal had died by that day.

For the compound `CC/C(=C(/CC)c1ccc(O)cc1)c1ccc(O)cc1`, the survivor count (T/C endpoint: median survival time, dose: 256.0 mg/kg/injection, schedule: Q01DX009 (ip), vehicle: saline) was 5 of 6. Moreover, the T/C (T/C endpoint: median survival time, dose: 512.0 mg/kg/injection, schedule: Q01DX009 (ip), vehicle: saline) is 132 % of control [4 of 6 alive].
In the case of `O=[N+]([O-])O.[Ga]`, the survivor count (T/C endpoint: median survival time, dose: 128.0 mg/kg/injection, schedule: Q01DX005 (ip), vehicle: saline) was 6 of 10; the survivor count (T/C endpoint: median survival time, dose: 256.0 mg/kg/injection, schedule: Q01DX005 (ip), vehicle: saline) is 0 of 10 and 1 of 10.
Take `CN(C)N=Nc1ccccc1C(=O)O`: under “T/C endpoint: mean survival time, dose: 60.0 mg/kg/injection, schedule: Q01DX007 (ip), vehicle: other”, the survivor count is given as 1 of 6.
As for `CN(C)CCCN1c2ccccc2Sc2ccc(Cl)cc21`, the T/C (T/C endpoint: median survival time, dose: 75.0 mg/kg/injection, schedule: Q01DX001 (ip), vehicle: water) was 130 % of control [2 of 6 alive].
Turning to `N[C@H](C(=O)O)[C@@H]1CC(Cl)=NO1`, the T/C runs as follows: (T/C endpoint: mean survival time, dose: 2.0 mg/kg/injection, schedule: Q01DX009 (ip), vehicle: saline) 142 % of control [9 of 10 alive]; (T/C endpoint: mean survival time, dose: 4.0 mg/kg/injection, schedule: Q01DX009 (ip), vehicle: saline) 142 % of control; under setting [1], 132 % of control. The survivor count by setting is: (T/C endpoint: mean survival time, dose: 64.0 mg/kg/injection, schedule: Q01DX009 (ip), vehicle: saline) 8 of 10; (T/C endpoint: mean survival time, dose: 128.0 mg/kg/injection, schedule: Q01DX009 (ip), vehicle: saline) 8 of 10.
As to `O=NN(CCCl)C(=O)NC1C(O)C(O)C(O)C(O)C1O` (stereo not drawn), the T/C by setting is: (T/C endpoint: mean survival time, dose: 20.0 mg/kg/injection, schedule: Q01DX001 (ip), vehicle: saline) 125 % of control; (T/C endpoint: mean survival time, dose: 30.0 mg/kg/injection, schedule: Q01DX001 (ip), vehicle: saline) 147 % of control. For the same compound, the survivor count by setting is: (T/C endpoint: mean survival time, dose: 100.0 mg/kg/injection, schedule: Q01DX001 (ip), vehicle: saline) 10 of 10; (T/C endpoint: mean survival time, dose: 150.0 mg/kg/injection, schedule: Q01DX001 (ip), vehicle: saline) 7 of 10.
Take `CN(CCO)/N=N/c1nc[nH]c1C(N)=O`: the T/C under setting [2] is 144 % of control.
For the compound `O=c1[nH]cc(F)c(=O)[nH]1`, the T/C runs as follows: (T/C endpoint: mean survival time, dose: 25.0 mg/kg/injection, schedule: Q01DX009 (ip), vehicle: saline) 139 % of control; (T/C endpoint: mean survival time, dose: 30.0 mg/kg/injection, schedule: Q01DX009 (ip), vehicle: saline) 138 % of control.
On to `COc1ccc2cc1Oc1ccc(cc1)C[C@H]1c3cc(c(OC)cc3CCN1C)Oc1c(OC)c(OC)cc3c1[C@H](C2)N(C)CC3`, for which, under setting [3], the survivor count was 10 of 10.
On to `CC(=O)NNC(=O)c1ccccn1`, for which the survivor count is given as 0 of 10 under setting [3] and 0 of 10 (T/C endpoint: median survival time, dose: 800.0 mg/kg/injection, schedule: Q01DX005 (ip), vehicle: Klucel (hydroxypropylcellulose) (HPC)).
For the compound `COc1ccc(CC2C(=O)NC(C)C(=O)N(C)C3C(=O)N(C)C(Cc4ccc(O)c(c4)Oc4ccc(cc4)C3O)C(=O)NC(C)C(=O)NC(C)C(=O)N2C)cc1` (stereo not drawn), for the setting “T/C endpoint: median survival time, dose: 0.12 mg/kg/injection, schedule: Q01DX009 (ip), vehicle: Klucel (hydroxypropylcellulose) (HPC)”, the survivor count was 0 of 6.
Turning to `O=C1C(NCCO)=C(N2CC2)C(=O)C(NCCO)=C1N1CC1`, the T/C (T/C endpoint: mean survival time, dose: 0.37 mg/kg/injection, schedule: Q01DX009 (ip), vehicle: saline) is 128 % of control.
Turning to `CN(CO)c1nc(N(C)CO)nc(N(C)CO)n1`, the survivor count is 4 of 6 (T/C endpoint: median survival time, dose: 50.0 mg/kg/injection, schedule: Q01DX009 (ip), vehicle: saline with Tween-80); 6 of 6 (T/C endpoint: median survival time, dose: 100.0 mg/kg/injection, schedule: Q01DX009 (ip), vehicle: saline with Tween-80); 6 of 6 (T/C endpoint: median survival time, dose: 200.0 mg/kg/injection, schedule: Q01DX009 (ip), vehicle: Klucel (hydroxypropylcellulose) (HPC)); 3 of 6 (T/C endpoint: median survival time, dose: 200.0 mg/kg/injection, schedule: Q01DX009 (ip), vehicle: saline with Tween-80); 0 of 6 (T/C endpoint: median survival time, dose: 400.0 mg/kg/injection, schedule: Q01DX009 (ip), vehicle: Klucel (hydroxypropylcellulose) (HPC)); 2 of 6 (T/C endpoint: median survival time, dose: 400.0 mg/kg/injection, schedule: Q01DX009 (ip), vehicle: saline with Tween-80). For the same compound, the survivor count (T/C endpoint: median survival time, dose: 800.0 mg/kg/injection, schedule: Q01DX009 (ip), vehicle: saline with Tween-80) was 0 of 6.
Take `COc1cc([C@@H]2c3cc4c(cc3[C@@H](OC3OC5COC(C)OC5C(O)C3O)[C@H]3COC(=O)[C@H]23)OCO4)cc(OC)c1O` (stereo partly drawn): under “T/C endpoint: median survival time, dose: 16.0 mg/kg/injection, schedule: Q01DX009 (ip), vehicle: saline”, the T/C was 128 % of control.
Regarding `O=CC(NC(=O)N(CCCl)N=O)C(O)C(O)C(O)CO` (stereo not drawn), the T/C is, setting by setting: (T/C endpoint: median survival time, dose: 6.25 mg/kg/injection, schedule: Q01DX001 (ip), vehicle: DMSO) 130 % of control; (T/C endpoint: median survival time, dose: 6.25 mg/kg/injection, schedule: Q01DX001 (oral), vehicle: saline) 134 % of control; (T/C endpoint: median survival time, dose: 12.5 mg/kg/injection, schedule: Q01DX001 (ip), vehicle: DMSO) 138 % of control; (T/C endpoint: median survival time, dose: 12.5 mg/kg/injection, schedule: Q01DX001 (oral), vehicle: saline) 134 % of control; (T/C endpoint: median survival time, dose: 25.0 mg/kg/injection, schedule: Q01DX001 (ip), vehicle: saline) 125 % of control; (T/C endpoint: median survival time, dose: 25.0 mg/kg/injection, schedule: Q01DX001 (oral), vehicle: saline) 136 % of control.
For the compound `CCC(=O)O[C@H]1CC[C@H]2[C@@H]3CCC4=CC(=O)CC[C@]4(C)[C@H]3CC[C@]12C`, the T/C (T/C endpoint: median survival time, dose: 64.0 mg/kg/injection, schedule: Q01DX009 (ip), vehicle: saline) is 142 % of control.
As for `COc1cc2c(c3c1c(=O)c1ccccc1n3C)C=CC(C)(C)O2`, the survivor count is, setting by setting: (T/C endpoint: median survival time, dose: 256.0 mg/kg/injection, schedule: Q01DX005 (ip), vehicle: Klucel (hydroxypropylcellulose) (HPC)) 1 of 10 and 2 of 10; (T/C endpoint: median survival time, dose: 512.0 mg/kg/injection, schedule: Q01DX005 (ip), vehicle: Klucel (hydroxypropylcellulose) (HPC)) 0 of 10 and 1 of 10; (T/C endpoint: median survival time, dose: 1024.0 mg/kg/injection, schedule: Q01DX005 (ip), vehicle: Klucel (hydroxypropylcellulose) (HPC)) 0 of 10.
`COC(=O)C(Cc1ccc(N(CCCl)CCCl)cc1)N=NNc1nc[nH]c1C(N)=O` (stereo not drawn): the survivor count is 6 of 6 (T/C endpoint: median survival time, dose: 64.0 mg/kg/injection, schedule: Q01DX005 (ip), vehicle: saline with Tween-80) and 1 of 6 under setting [4].
As for `CC1CCC(NC(=O)N(CCCl)N=O)CC1` (stereo not drawn), the T/C was 134 % of control (T/C endpoint: median survival time, dose: 8.0 mg/kg/injection, schedule: Q01DX001 (ip), vehicle: other); 126 % of control (T/C endpoint: median survival time, dose: 25.0 mg/kg/injection, schedule: Q01DX001 (ip), vehicle: DMSO); 134 % of control (T/C endpoint: median survival time, dose: 50.0 mg/kg/injection, schedule: Q01DX001 (oral), vehicle: saline + alcohol). Moreover, the survivor count (T/C endpoint: median survival time, dose: 128.0 mg/kg/injection, schedule: Q01DX001 (ip), vehicle: other) is listed as 2 of 6 and the survivor count (T/C endpoint: median survival time, dose: 200.0 mg/kg/injection, schedule: Q01DX001 (ip), vehicle: saline + alcohol) is 2 of 6.
For the compound `C[C@]12C=CC(=O)C=C1CC[C@@H]1[C@@H]2CC[C@]2(C)OC(=O)CC[C@@H]12`, the survivor count (T/C endpoint: median survival time, dose: 512.0 mg/kg/injection, schedule: Q01DX009 (ip), vehicle: saline with Tween-80) was 3 of 6 and 5 of 6.
For the compound `CN(C)N=Nc1ccc([N+](=O)[O-])cc1C(N)=O`, the survivor count is, setting by setting: under setting [5], 3 of 6; under setting [2], 0 of 6.
Consider `C[C@H](CN1CC(=O)NC(=O)C1)N1CC(=O)NC(=O)C1`, for which the T/C (T/C endpoint: mean survival time, dose: 16.0 mg/kg/injection, schedule: Q01DX009 (ip), vehicle: water) is 130 % of control and the T/C (T/C endpoint: mean survival time, dose: 32.0 mg/kg/injection, schedule: Q01DX009 (ip), vehicle: water) was 147 % of control.
For the compound `COc1cc(C[C@H]2c3cc(OC)c(OC)cc3CCN2C)c(Oc2cc3c(cc2OC)-c2c(OC)c(OC)cc4c2[C@H](C3)N(C)CC4)cc1OC`, the survivor count under setting [3] is listed as 1 of 10.
As for `CC[n+]1ccc(Nc2ccc(NC(=O)c3ccc(Nc4cc[n+](CC)c5ccc(N)cc45)cc3)cc2)cc1`, the survivor count runs as follows: under setting [1], 0 of 7; (T/C endpoint: mean survival time, dose: 16.0 mg/kg/injection, schedule: Q01DX009 (ip), vehicle: saline) 0 of 7.
On to `CCCCN(C)N=Nc1c(C(N)=O)n[nH]c1C`, for which the survivor count under setting [4] is on record as 4 of 6 and the survivor count under setting [5] is 2 of 6.

The record behind these values is PubChem BioAssay AID260 (DTP/NCI, 2004).
